The structures appear in SMILES notation.

Assay [1] deals with Axin2 accumulation in SW480 cells. Put plainly: Axin2 384 immunofluorescence assay. The assay is classed as cell-based. Particulars: Homo sapiens, SW480, 24 h, read-out: Axin2 384 IF EC50.
The test system of assay [2] is total β-catenin in SW480 colorectal cells. Description: Total β-catenin MSD 96-well plate assay for SW480 cells. Particulars: Homo sapiens, SW480, read-out: SW480-Total beta-catenin (TBC) IC50 IP.

On to `O=C(CCc1nc2ccccc2c(=O)[nH]1)N[C@H]1CC[C@H](c2nnc(-c3ccccc3F)o2)CC1` [Example 126, N-((1r,4r)-4-(5-(2-fluorophenyl)-1,3,4-oxadiazol-2-yl)cyclohexyl)-3-(4-oxo-3,4-dihydroquinazolin-2-yl)propanamide], for which the EC50 in assay [1] worked out at 2720 nM. For the same molecule, the IC50 in assay [2] was determined as 1020 nM.

What is called EC50 is the concentration needed to bring the measured effect to its halfway point. A word on the IC50: it is the concentration that gives 50% inhibition.

These data come from US9505749B2, “Quinazolinone compounds and derivatives thereof” (AMGEN INC., priority 2012, dated 2016).
